Laboratory results: paper PMC8043893

The chains behind the UniProt entries cited, without tags or fusion partners.
UniProt Q9GZV5: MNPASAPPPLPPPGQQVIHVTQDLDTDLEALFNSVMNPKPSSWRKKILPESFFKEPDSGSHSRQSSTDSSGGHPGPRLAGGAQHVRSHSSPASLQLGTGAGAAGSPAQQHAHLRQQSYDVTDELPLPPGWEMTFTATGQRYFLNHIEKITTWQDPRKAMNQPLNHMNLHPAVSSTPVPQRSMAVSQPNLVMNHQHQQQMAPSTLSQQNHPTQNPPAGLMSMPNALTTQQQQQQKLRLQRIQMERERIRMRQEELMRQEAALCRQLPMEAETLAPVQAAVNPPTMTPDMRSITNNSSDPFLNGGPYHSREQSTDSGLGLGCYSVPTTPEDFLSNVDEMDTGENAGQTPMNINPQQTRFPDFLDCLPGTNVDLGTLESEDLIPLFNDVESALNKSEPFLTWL

T1: MYC-BioID2-SKI fusion protein (human SKI) (human) (UniProt P12755)
T1 sequence: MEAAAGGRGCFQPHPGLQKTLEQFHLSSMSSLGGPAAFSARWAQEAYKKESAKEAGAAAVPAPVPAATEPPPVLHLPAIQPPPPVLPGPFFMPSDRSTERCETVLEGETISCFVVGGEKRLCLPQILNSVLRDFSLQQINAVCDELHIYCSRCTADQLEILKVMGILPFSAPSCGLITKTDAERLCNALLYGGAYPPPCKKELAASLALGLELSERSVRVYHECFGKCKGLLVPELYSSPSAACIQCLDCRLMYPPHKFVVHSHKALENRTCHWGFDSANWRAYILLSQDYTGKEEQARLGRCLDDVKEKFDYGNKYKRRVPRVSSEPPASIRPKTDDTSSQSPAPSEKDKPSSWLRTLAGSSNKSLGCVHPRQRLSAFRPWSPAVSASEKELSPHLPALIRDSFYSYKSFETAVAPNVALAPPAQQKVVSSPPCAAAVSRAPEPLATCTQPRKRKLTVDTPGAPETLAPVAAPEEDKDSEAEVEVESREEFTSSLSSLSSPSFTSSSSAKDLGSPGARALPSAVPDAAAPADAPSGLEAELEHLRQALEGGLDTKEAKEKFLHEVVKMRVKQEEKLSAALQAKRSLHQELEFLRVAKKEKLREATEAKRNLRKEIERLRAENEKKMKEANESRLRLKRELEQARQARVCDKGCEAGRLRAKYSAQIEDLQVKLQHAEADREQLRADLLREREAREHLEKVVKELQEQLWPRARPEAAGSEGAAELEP

B1: PJA2 ubiquitin ligase (enzyme, UniProt O43164 1-708)
chain: MSQYTEKEPAAMDQESGKAVWPKPAGGYQTITGRRYGRRHAYVSFKPCMTRHERSLGRAGDDYEVLELDDVPKENSSGSSPLDQVDSSLPSEPIFEKSETEIPTCGSALNQTTESSQSFVAVHHSEEGRDTLGSSTNLHNHSEGEYIPGACSASSVQNGIALVHTDSYDPDGKHGEDNDHLQLSAEVVEGSRYQESLGNTVFELENREAEAYTGLSPPVPSFNCEVRDEFEELDSVPLVKSSAGDTEFVHQNSQEIQRSSQDEMVSTKQQNNTSQERQTEHSPEDAACGPGHICSEQNTNDREKNHGSSPEQVVRPKVRKLISSSQVDQETGFNRHEAKQRSVQRWREALEVEESGSDDLLIKCEEYDGEHDCMFLDPPYSRVITQRETENNQMTSESGATAGRQEVDNTFWNGCGDYYQLYDKDEDSSECSDGEWSASLPHRFSGTEKDQSSSDESWETLPGKDENEPELQSDSSGPEEENQELSLQEGEQTSLEEGEIPWLQYNEVNESSSDEGNEPANEFAQPAFMLDGNNNLEDDSSVSEDLDVDWSLFDGFADGLGVAEAISYVDPQFLTYMALEERLAQAMETALAHLESLAVDVEVANPPASKESIDGLPETLVLEDHTAIGQEQCCPICCSEYIKDDIATELPCHHFFHKPCVSIWLQKSGTCPVCRRHFPPAVIEASAAPSSEPDPDAPPSNDSIAEAP
B2: Palladin (protein, UniProt Q8WX93 1-1383)
chain: MSGTSSHESFYDSLSDMQEESKNTDFFPGLSAFLSQEEINKSLDLARRAIADSETEDFDSEKEISQIFSTSPASLCEHPSHKETKLGEHASRRPQDNRSTPVQPLAEKQTKSISSPVSKRKPAMSPLLTRPSYIRSLRKAEKRGAKTPSTNVKPKTPHQRKGGPQSQLCDKAANLIEELTSIFKAAKPRNRSPNGESSSPDSGYLSPKNQPSALLSASASQSPMEDQGEMEREVKSPGARHCYQDNQDLAVPHNRKSHPQPHSALHFPAAPRFIQKLRSQEVAEGSRVYLECRVTGNPTPRVRWFCEGKELHNTPDIQIHCEGGDLHTLIIAEAFEDDTGRYTCLATNPSGSDTTSAEVFIEGASSTDSDSESLAFKSRAGAMPQAQKKTTSVSLTIGSSSPKTGVTTAVIQPLSVPVQQVHSPTSYLCRPDGTTTAYFPPVFTKELQNTAVAEGQVVVLECRVRGAPPLQVQWFRQGSEIQDSPDFRILQKKPRSTAEPEEICTLVIAETFPEDAGIFTCSARNDYGSATSTAQLVVTSANTENCSYESMGESNNDHFQHFPPPPPILETSSLELASKKPSEIQQVNNPELGLSRAALQMQFNAAERETNGVHPSRGVNGLINGKANSNKSLPTPAVLLSPTKEPPPLLAKPKLDPLKLQQLQNQIRLEQEAGARQPPPAPRSAPPSPPFPPPPAFPELAACTPPASPEPMSALASRSAPAMQSSGSFNYARPKQFIAAQNLGPASGHGTPASSPSSSSLPSPMSPTPRQFGRAPVPPFAQPFGAEPEAPWGSSSPSPPPPPPPVFSPTAAFPVPDVFPLPPPPPPLPSPGQASHCSSPATRFGHSQTPAAFLSALLPSQPPPAAVNALGLPKGVTPAGFPKKASRTARIASDEEIQGTKDAVIQDLERKLRFKEDLLNNGQPRLTYEERMARRLLGADSATVFNIQEPEEETANQEYKVSSCEQRLISEIEYRLERSPVDESGDEVQYGDVPVENGMAPFFEMKLKHYKIFEGMPVTFTCRVAGNPKPKIYWFKDGKQISPKSDHYTIQRDLDGTCSLHTTASTLDDDGNYTIMAANPQGRISCTGRLMVQAVNQRGRSPRSPSGHPHVRRPRSRSRDSGDENEPIQERFFRPHFLQAPGDLTVQEGKLCRMDCKVSGLPTPDLSWQLDGKPVRPDSAHKMLVRENGVHSLIIEPVTSRDAGIYTCIATNRAGQNSFSLELVVAAKEAHKPPVFIEKLQNTGVADGYPVRLECRVLGVPPPQIFWKKENESLTHSTDRVSMHQDNHGYICLLIQGATKEDAGWYTVSAKNEAGIVSCTARLDVYTQWHQQSQSTKPKKVRPSASRYAALSDQGLDIKAAFQPEANPSHLTLNTALVESEDL
B3: Large Tumor Suppressor 1, O95835 1-1130 (enzyme)
chain: MKRSEKPEGYRQMRPKTFPASNYTVSSRQMLQEIRESLRNLSKPSDAAKAEHNMSKMSTEDPRQVRNPPKFGTHHKALQEIRNSLLPFANETNSSRSTSEVNPQMLQDLQAAGFDEDMVIQALQKTNNRSIEAAIEFISKMSYQDPRREQMAAAAARPINASMKPGNVQQSVNRKQSWKGSKESLVPQRHGPPLGESVAYHSESPNSQTDVGRPLSGSGISAFVQAHPSNGQRVNPPPPPQVRSVTPPPPPRGQTPPPRGTTPPPPSWEPNSQTKRYSGNMEYVISRISPVPPGAWQEGYPPPPLNTSPMNPPNQGQRGISSVPVGRQPIIMQSSSKFNFPSGRPGMQNGTGQTDFMIHQNVVPAGTVNRQPPPPYPLTAANGQSPSALQTGGSAAPSSYTNGSIPQSMMVPNRNSHNMELYNISVPGLQTNWPQSSSAPAQSSPSSGHEIPTWQPNIPVRSNSFNNPLGNRASHSANSQPSATTVTAITPAPIQQPVKSMRVLKPELQTALAPTHPSWIPQPIQTVQPSPFPEGTASNVTVMPPVAEAPNYQGPPPPYPKHLLHQNPSVPPYESISKPSKEDQPSLPKEDESEKSYENVDSGDKEKKQITTSPITVRKNKKDEERRESRIQSYSPQAFKFFMEQHVENVLKSHQQRLHRKKQLENEMMRVGLSQDAQDQMRKMLCQKESNYIRLKRAKMDKSMFVKIKTLGIGAFGEVCLARKVDTKALYATKTLRKKDVLLRNQVAHVKAERDILAEADNEWVVRLYYSFQDKDNLYFVMDYIPGGDMMSLLIRMGIFPESLARFYIAELTCAVESVHKMGFIHRDIKPDNILIDRDGHIKLTDFGLCTGFRWTHDSKYYQSGDHPRQDSMDFSNEWGDPSSCRCGDRLKPLERRAARQHQRCLAHSLVGTPNYIAPEVLLRTGYTQLCDWWSVGVILFEMLVGQPPFLAQTPLETQMKVINWQTSLHIPPQAKLSPEASDLIIKLCRGPEDRLGKNGADEIKAHPFFKTIDFSSDLRQQSASYIPKITHPTDTSNFDPVDPDKLWSDDNEEENVNDTLNGWYKNGKHPEHAFYEFTFRRFFDDNGYPYNYPKPIEYEYINSQGSEQQSDEDDQNTGSEIKNRDLVYV

Assays:
Experiment in all cases: proximity labelling; BioID2 fusion bait expressed by adenovirus (MOI 20) in primary human cardiac fibroblasts (P3); 20 uM biotin; lysis; capture on magnetic streptavidin beads; tryptic digestion and MS/MS; SAINTexpress against untreated and empty-BioID2 controls; cut-off fold change >= 3 and SAINT score >= 0.5
[1] = biological target: T1, MYC-BioID2-SKI fusion protein (human SKI) (human)
[2] = biological target: MYC-BioID2-TAZ fusion protein (human TAZ/WWTR1) (human) (UniProt Q9GZV5)
[3] = biological target: MYC-BioID2-TAZ fusion protein (human TAZ/WWTR1) (human), Q9GZV5; details: remark: other sources report otherwise

Binder	binding [1]	binding [2]	binding [3]
B1	binds	–	–
B2	binds	binds	–
B3	–	–	no binding

These are yes or no findings as the source states them, for the method shown. Binding seen in cells or lysates may run through a third protein. A yes stands for co-enrichment or nearness to the bait. Other partners may have been found. For some of these results: A no says only that the protein was not detected with the bait. For some of these results: Sequences can lack the tags named with a protein.
